Among the data in PubChem BioAssay AID330 (DTP/NCI, 2004) are T/C and survivor count values, retold here.

The list shows only some results of the screen, not a fair sample: it is rich in T/C values a quarter to a half above the control, in often repeated tests (any T/C) and in doses without a T/C. Other doses and runs of a compound stand elsewhere. T/C is the treated group as % of the vehicle group. Some doses have a count of surviving animals in place of a T/C: the source files T/C as zero there, which appears to mark a toxic dose or a test without result, not a measured value. Some survivor counts are full or nearly so, which does not show that the dose was tolerated: survival well below the control is almost never listed, so the zero probably covers shortened survival too. Survivors were counted at the toxicity check, usually on the fifth day, unless a day is given; later deaths do not show. Schedule codes are those of the source, taken here to give the interval after Q, in days (D) or hours (H), and the number of doses after X. Some entries hold several experiments; the values are given in rising order. For survival time, this PubChem deposit counts one and a half times the control or more as active, and values a quarter to a half above the control carry no call in these data; other NCI protocols may use other cut-offs. Some T/C values carry the count of animals alive at the toxicity check (mostly the fifth day); where none is given, no animal had died by that day.

The subject of the assay is P388 leukemia ip, CD2F1 mice, survival T/C. The assay is described as follows: NCI In Vivo Anticancer Drug Screen. Data for tumor model P388 Leukemia (intraperitoneal) in CD2F1 (CDF1) mice. Particulars: T/C endpoint: median survival time, higher T/C = longer survival.
Where [1] appears, read: dose: 50.0 mg/kg/injection, schedule: Q01DX005 (ip), vehicle: Klucel (hydroxypropylcellulose) (HPC).
Setting [2] is: dose: 400.0 mg/kg/injection, schedule: Q01DX009 (ip), vehicle: saline with Tween-80.

As for `CN(C)CC/C=C1\c2ccccc2Sc2ccc(Cl)cc21`, under setting [1], the T/C is 137 % of control [4 of 6 alive]. The survivor count under setting [1] is given as 4 of 6; the survivor count (dose: 50.0 mg/kg/injection, schedule: Q01DX005 (ip), vehicle: saline with Tween-80) was 2 of 6; the survivor count (dose: 100.0 mg/kg/injection, schedule: Q01DX005 (ip), vehicle: Klucel (hydroxypropylcellulose) (HPC)) is 0 of 6 and 1 of 6; the survivor count (dose: 100.0 mg/kg/injection, schedule: Q01DX005 (ip), vehicle: saline with Tween-80) is given as 0 of 6; the survivor count (dose: 200.0 mg/kg/injection, schedule: Q01DX005 (ip), vehicle: Klucel (hydroxypropylcellulose) (HPC)) is given as 0 of 6; the survivor count (dose: 200.0 mg/kg/injection, schedule: Q01DX005 (ip), vehicle: saline with Tween-80) is listed as 0 of 6.

In the case of `CC(=O)Nc1ccc(SSc2ccc(NC(C)=O)s2)s1`, the survivor count is 5 of 6 and 6 of 6 (dose: 100.0 mg/kg/injection, schedule: Q01DX001 (ip), vehicle: saline with Tween-80); 4 of 6 (dose: 200.0 mg/kg/injection, schedule: Q01DX001 (ip), vehicle: saline with Tween-80).

As for `CC(=O)C1(C(C)=O)C2=C(C(=O)C(Cl)=C(Cl)C2=O)N2C=CC=CC21` (stereo not drawn), the survivor count (dose: 400.0 mg/kg/injection, schedule: Q04DX002 (ip), vehicle: saline) is given as 5 of 6.

Turning to `CC(Oc1ccccc1)C(=O)O` (stereo not drawn), the survivor count by setting is: (dose: 200.0 mg/kg/injection, schedule: Q01DX009 (ip), vehicle: saline with Tween-80) 2 of 6; under setting [2], 0 of 6.

On to `CC(N1CCOCC1)C(O)(c1ccccc1)c1ccccn1` (stereo not drawn), for which the survivor count (dose: 200.0 mg/kg/injection, schedule: Q01DX005 (ip), vehicle: saline + alcohol) is 0 of 6.

With `COc1ccc2[nH]cc(CCN(C)C)c2c1`, the T/C (dose: 25.0 mg/kg/injection, schedule: Q01DX009 (ip), vehicle: saline with Tween-80) was 125 % of control.

Regarding `COc1cccc(C(O)c2ccncc2)c1OC` (stereo not drawn), the survivor count (dose: 400.0 mg/kg/injection, schedule: Q01DX009 (ip), vehicle: water) is listed as 5 of 6.

On to `O=C(CN1CCCCC1)Nc1ccc(Br)cc1`, for which the survivor count is reported as 6 of 6 (dose: 100.0 mg/kg/injection, schedule: Q01DX009 (ip), vehicle: saline); 3 of 6 (dose: 200.0 mg/kg/injection, schedule: Q01DX009 (ip), vehicle: saline); 3 of 6 (dose: 400.0 mg/kg/injection, schedule: Q01DX009 (ip), vehicle: saline).

Turning to `O=C/C=C/c1cccc([N+](=O)[O-])c1`, the survivor count under setting [2] was 1 of 6.

Take `Nc1[nH]c(=S)[nH]c(=O)c1N=Cc1ccc(Cl)c(Cl)c1`: the T/C (dose: 400.0 mg/kg/injection, schedule: Q01DX001 (ip), vehicle: Klucel (hydroxypropylcellulose) (HPC)) is 128 % of control.

As for `O=C1C(C=Nc2ccc(S(=O)(=O)Nc3nccs3)cc2)C(=O)N(c2ccccc2)N1c1ccccc1`, the survivor count reads like this: (dose: 50.0 mg/kg/injection, schedule: Q01DX009 (ip), vehicle: Klucel (hydroxypropylcellulose) (HPC)) 6 of 6; (dose: 100.0 mg/kg/injection, schedule: Q01DX009 (ip), vehicle: Klucel (hydroxypropylcellulose) (HPC)) 6 of 6; (dose: 200.0 mg/kg/injection, schedule: Q01DX009 (ip), vehicle: Klucel (hydroxypropylcellulose) (HPC)) 6 of 6.
